Measurements as given in article PMC11626941, “FBLN7 mediates vascular smooth muscle cell phenotype switching and vascular remodeling in hypertension” (Theranostics, 2024).
Results are given in words; binding and its absence hold for the method and conditions named. Binding seen in cells or lysates may run through a third protein. These calls come from enrichment with a bait or labelling near it, and not all partners need be listed. Sequences can lack the tags named with a protein.

Target: T1, Flag-FBLN7 (fibulin-7) expressed from recombinant adenovirus (UniProt Q501P1)
T1 sequence: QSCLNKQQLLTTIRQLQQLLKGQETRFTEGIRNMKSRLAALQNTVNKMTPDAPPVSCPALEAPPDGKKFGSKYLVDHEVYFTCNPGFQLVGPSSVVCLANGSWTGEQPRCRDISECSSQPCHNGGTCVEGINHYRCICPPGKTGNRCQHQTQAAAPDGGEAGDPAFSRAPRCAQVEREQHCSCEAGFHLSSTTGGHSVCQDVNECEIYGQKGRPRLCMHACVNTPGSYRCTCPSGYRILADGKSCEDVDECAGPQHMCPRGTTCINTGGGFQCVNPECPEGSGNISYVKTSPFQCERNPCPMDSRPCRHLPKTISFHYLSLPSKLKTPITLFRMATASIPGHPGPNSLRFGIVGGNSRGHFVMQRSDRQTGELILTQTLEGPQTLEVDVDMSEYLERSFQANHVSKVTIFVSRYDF
Test: affinity purification with mass spectrometry; VSMCs transfected with Flag-FBLN7 adenovirus; immunoprecipitation with Flag antibody; LC-MS/MS

binding: binds
B1: Flag-tagged full-length mouse SDC4 (receptor, UniProt O35988 24-198, looked up)
chain: ESIRETEVIDPQDLLEGRYFSGALPDDEDAGGSDDFELSGSGDLDDTEEPRPFPEVIEPLVPLDNHIPENAQPGIRVPSEPKELEENEVIPKRAPSDVGDDMSNKVSMSSTAQGSNIFERTEVLAALIVGGVVGILFAVFLILLLVYRMKKKDEGSYDLGKKPIYKKAPTNEFYA
notes: Plasmids provided by GenePharma; Seen as monomer, dimer and tetramer bands on non-reducing blots; also called Flag-SDC4; Flag (SDC4); source: HEK293T, transfected (pcDNA 3.1), in lysate; not shown: Flag, C-terminal, kept
